Laboratory results: PubChem BioAssay AID1053208 (Peter MacCallum Cancer Centre, 2014)
Test: 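Find knock-downs that sensitise mouse osteosarcoma cells to doxorubicin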 (primary screen). Cell system: mouse osteosarcoma cells, early-passage culture from an engineered mouse model of fibroblastic bone tumour. Knock-down reagent: siRNA pool against mouse genes, 40 nM. Duration: about 120 h (48 h before drug, then 72 h with drug). Conditions: doxorubicin 100 nM for 72 h, roughly 30-40% inhibitory dose. Detection: 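Luminescent ATP signal taken as viability with or without 100 nM doxorubicin for 72 h; mean of two wells set against non-targeting siRNA and turned into robust z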. Reading the numbers: viability z-score with doxorubicin: higher = more viable cells under doxorubicin; viability z-score without drug: higher = more viable cells with knock-down alone. Rule for the call: 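a pool counts as active when its viability z-score with doxorubicin is -2 or below and its z-score without drug lies between -2 and 2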.
In all, the deposit lists about 17,000 reagents; below is a random part of them. Over the whole deposit, 788 (4.7%) were called active. 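Calls rest on z-score classes alone; an extra cut-off of viability at most 70% of control was not applied to them.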 Unmarked entries are inactive. Not all columns of the deposit are shown.

Rlim (GeneID 19820)
- combined z-score class: low cell count with doxorubicin only (active)
- viability z-score with doxorubicin: -2.36
- viability z-score without drug: -0.67

Csrnp2 (GeneID 207785)
- combined z-score class: no change with or without drug
- viability z-score with doxorubicin: 0.34
- viability z-score without drug: -0.17

Cga (GeneID 12640)
- combined z-score class: no change with or without drug
- viability z-score with doxorubicin: -0.56
- viability z-score without drug: 0.17

Mup2 (GeneID 17841)
- combined z-score class: no change with or without drug
- viability z-score with doxorubicin: -0.67
- viability z-score without drug: -0.84

Kif3b (GeneID 16569)
- combined z-score class: no change with or without drug
- viability z-score with doxorubicin: -0.79
- viability z-score without drug: -0.67

Olfr242 (GeneID 406175)
- combined z-score class: no change with or without drug
- viability z-score with doxorubicin: -0.11
- viability z-score without drug: -0.17

Cobll1 (GeneID 319876)
- combined z-score class: no change with or without drug
- viability z-score with doxorubicin: 0.56
- viability z-score without drug: 0.51

Dek (GeneID 110052)
- combined z-score class: no change with or without drug
- viability z-score with doxorubicin: 0.9
- viability z-score without drug: -0.51

Ptprn2 (GeneID 19276)
- combined z-score class: no change with or without drug
- viability z-score with doxorubicin: -1.57
- viability z-score without drug: -0.51

Ccl11 (GeneID 20292)
- combined z-score class: no change with or without drug
- viability z-score with doxorubicin: -0.45
- viability z-score without drug: -1.52

Msh6 (GeneID 17688)
- combined z-score class: no change with or without drug
- viability z-score with doxorubicin: -0.22
- viability z-score without drug: -1.18

Dazl (GeneID 13164)
- combined z-score class: no change with or without drug
- viability z-score with doxorubicin: 0.67
- viability z-score without drug: 1.52

Tdrp (GeneID 72148)
- combined z-score class: no change with or without drug
- viability z-score with doxorubicin: -0.11
- viability z-score without drug: 0.67

Speer4d (GeneID 360220)
- combined z-score class: no change with or without drug
- viability z-score with doxorubicin: 1.12
- viability z-score without drug: 0.34

Or8k1 (GeneID 258575)
- combined z-score class: no change with or without drug
- viability z-score with doxorubicin: -0.67
- viability z-score without drug: -1.52

A630026L20
- combined z-score class: no change with or without drug
- viability z-score with doxorubicin: -0.67
- viability z-score without drug: -0.51

Hits, of those listed so far:
Rlim (GeneID 19820)
- combined z-score class: low cell count with doxorubicin only (active)
- viability z-score with doxorubicin: -2.36
- viability z-score without drug: -0.67

The listing continues.
Pgam2 (GeneID 56012)
- combined z-score class: high cell count with and without drug
- viability z-score with doxorubicin: 2.47
- viability z-score without drug: 3.71

Cd302 (GeneID 66205)
- combined z-score class: no change with or without drug
- viability z-score with doxorubicin: 0.34
- viability z-score without drug: -0.67

Senp8 (GeneID 71599)
- combined z-score class: no change with or without drug
- viability z-score with doxorubicin: -1.35
- viability z-score without drug: -0.84

Spink2 (GeneID 69982)
- combined z-score class: no change with or without drug
- viability z-score with doxorubicin: 0.45
- viability z-score without drug: -0.17

Srf (GeneID 20807)
- combined z-score class: no change with or without drug
- viability z-score with doxorubicin: 0.67
- viability z-score without drug: -1.18

Sts (GeneID 20905)
- combined z-score class: no change with or without drug
- viability z-score with doxorubicin: 0.79
- viability z-score without drug: -0.51

Icam2 (GeneID 15896)
- combined z-score class: no change with or without drug
- viability z-score with doxorubicin: 0.56
- viability z-score without drug: -0.84

Or7c70 (GeneID 258305)
- combined z-score class: no change with or without drug
- viability z-score with doxorubicin: -0.56
- viability z-score without drug: -0.84

Hoatz (GeneID 235345)
- combined z-score class: no change with or without drug
- viability z-score with doxorubicin: 0
- viability z-score without drug: -0.84

Tle3 (GeneID 21887)
- combined z-score class: no change with or without drug
- viability z-score with doxorubicin: -1.12
- viability z-score without drug: -0.51

Micos13 (GeneID 224904)
- combined z-score class: low cell count without drug only
- viability z-score with doxorubicin: 1.24
- viability z-score without drug: -5.56

Emc1 (GeneID 230866)
- combined z-score class: no change with or without drug
- viability z-score with doxorubicin: 0.67
- viability z-score without drug: 0.51

Lactb2 (GeneID 212442)
- combined z-score class: no change with or without drug
- viability z-score with doxorubicin: 0.56
- viability z-score without drug: 0.51

Gal3st2 (GeneID 381334)
- combined z-score class: no change with or without drug
- viability z-score with doxorubicin: 0.45
- viability z-score without drug: 1.35

Rpl38 (GeneID 67671)
- combined z-score class: low cell count with and without drug
- viability z-score with doxorubicin: -5.4
- viability z-score without drug: -6.91

Il17re (GeneID 57890)
- combined z-score class: no change with or without drug
- viability z-score with doxorubicin: 0
- viability z-score without drug: 0.84

Ffar3 (GeneID 233080)
- combined z-score class: no change with or without drug
- viability z-score with doxorubicin: -0.34
- viability z-score without drug: 1.69

Acads (GeneID 11409)
- combined z-score class: no change with or without drug
- viability z-score with doxorubicin: 0.22
- viability z-score without drug: -0.17

Ptn (GeneID 19242)
- combined z-score class: high cell count with doxorubicin only
- viability z-score with doxorubicin: 2.25
- viability z-score without drug: 1.52

Gas6 (GeneID 14456)
- combined z-score class: no change with or without drug
- viability z-score with doxorubicin: 0.11
- viability z-score without drug: -0.17
